Drawing on doi:10.1101/2024.07.01.601633, this text covers binding for one molecule.

By UniProt entry, the sequences of proteins in these tests, tags left out. Residues count along the entry.
UniProt P14314, residues 15-528: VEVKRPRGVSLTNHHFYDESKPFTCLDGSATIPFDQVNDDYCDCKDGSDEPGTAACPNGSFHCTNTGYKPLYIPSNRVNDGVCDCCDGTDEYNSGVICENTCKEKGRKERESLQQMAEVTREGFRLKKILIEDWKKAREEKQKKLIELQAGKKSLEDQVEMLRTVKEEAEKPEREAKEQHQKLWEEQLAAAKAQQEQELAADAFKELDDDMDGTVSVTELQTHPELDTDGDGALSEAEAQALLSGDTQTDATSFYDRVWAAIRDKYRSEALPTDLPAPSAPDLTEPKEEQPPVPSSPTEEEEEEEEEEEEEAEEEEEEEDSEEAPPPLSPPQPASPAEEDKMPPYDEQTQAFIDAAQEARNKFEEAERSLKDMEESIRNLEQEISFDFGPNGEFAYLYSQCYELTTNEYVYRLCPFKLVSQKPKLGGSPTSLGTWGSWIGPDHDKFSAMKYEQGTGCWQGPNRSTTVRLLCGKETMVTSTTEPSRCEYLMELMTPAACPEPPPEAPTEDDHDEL

Results are given in words; binding and its absence hold for the method and conditions named. In cells and extracts the contact can be indirect. Some entries that bind do so weakly or less than the wild type.

The assay has as its target PRKCSH (UniProt P14314). In words: co-IP.

B1: myoclonin1 (protein, UniProt Q5JVL4 1-640)
chain: MVSNPVHGLPFLPGTSFKDSTKTAFHRSQTLSYRNGYAIVRRPTVGIGGDRLQFNQLSQAELDELASKAPVLTYGQPKQAPPADFIPAHVAFDKKVLKFDAYFQEDVPMSTEEQYRIRQVNIYYYLEDDSMSVIEPVVENSGILQGKLIKRQRLAKNDRGDHYHWKDLNRGINITIYGKTFRVVDCDQFTQVFLESQGIELNPPEKMALDPYTELRKQPLRKYVTPSDFDQLKQFLTFDKQVLRFYAIWDDTDSMYGECRTYIIHYYLMDDTVEIREVHERNDGRDPFPLLMNRQRVPKVLVENAKNFPQCVLEISDQEVLEWYTAKDFIVGKSLTILGRTFFIYDCDPFTRRYYKEKFGITDLPRIDVSKREPPPVKQELPPYNGFGLVEDSAQNCFALIPKAPKKDVIKMLVNDNKVLRYLAVLESPIPEDKDRRFVFSYFLATDMISIFEPPVRNSGIIGGKYLGRTKVVKPYSTVDNPVYYGPSDFFIGAVIEVFGHRFIILDTDEYVLKYMESNAAQYSPEALASIQNHVRKREAPAPEAESKQTEKDPGVQELEALIDTIQKQLKDHSCKDNIREAFQIYDKEASGYVDRDMFFKICESLNVPVDDSLVKELIRMCSHGEGKINYYNFVRAFSN
Turning to B1, the binding result is reported as “binds”.
